{"source": "patent US12578339B2", "about": "“Hexokinase 1 isoform B for use as a prognosis marker and specific target against cancer” (ISTANBUL MEDIPOL UNIVERSITESI, priority 2019, dated 2026)", "key": {"A549 HK1b−/− cells": {"tested_on": "A549 HK1b−/− cells", "assay": "Immunoblot analysis of apoptotic, autophagic and survival signaling", "format": "cell-based, Human", "description": "(§1) Cells were harvested and washed in PBS solution, collected, and then subjected to lysis in RIPA buffer containing proteinase inhibitor cocktail and phosphatase inhibitor cocktail (Roche). The lysates were subjected to centrifugation at 10,000 g at 4 C for 20 minutes and the supernatants removed. The total protein ([…]) was fractioned by 10% SDS-PAGE and electrophoretically transferred to Immobilon-FL PVDF membranes. The membrane was blocked with blocking buffer (Li-Cor) at room temperature for 1 hour, and then incubated with appropriate primary antibody at 4 C overnight. After washing with PBS containing 0.05% […] (PBST), the membrane was incubated with 1:2500 dilutions of appropriate secondary antibody for 2 hours at room temperature. The membrane was washed with PBST again, and Pierce ECL Western Blotting Substrate (Thermo Scientific) was used for development of immunoreactive bands. For immunoblotting of tissue samples, proteins were extracted from tumor and adjacent non-tumor lung samples collected from human NSCLC patients, snap frozen in liquid nitrogen, and stored at −80° C. Then protein lysis buffer (described above) was added to samples. Samples were vortexed, homogenized and subjected to three freeze/thaw cycles in dry ice, centrifuged and supernatant collected, and stored at −80° C. for subsequent immunoblotting."}, "A549 WT cells": {"tested_on": "A549 WT cells", "assay": "Immunoblot analysis of apoptotic, autophagic and survival signaling", "format": "cell-based, Human", "description": "as §1"}}, "note": "For at least one compound, name, drawing or mass did not settle the structure."}
{"smiles": "CO[C@H]1C[C@@H]2CC[C@@H](C)[C@@](O)(O2)C(=O)C(=O)N2CCCC[C@H]2C(=O)O[C@H]([C@H](C)C[C@@H]2CC[C@@H](O)[C@H](OC)C2)CC(=O)[C@H](C)/C=C(\\C)[C@@H](O)[C@@H](OC)C(=O)[C@H](C)C[C@H](C)/C=C/C=C/C=C/1C", "note": "[rapamycin]", "values": [{"measurement": "autophagy induction (LC3II)", "setting": "A549 HK1b−/− cells; HK1b deletion plus treatment", "result": "induces greater autophagy"}, {"measurement": "beclin-1 and ATG13 expression levels", "setting": "A549 HK1b−/− cells; both A549 WT and A549 HK1b−/− cells", "result": "not changed"}, {"measurement": "AMPK phosphorylation", "setting": "A549 HK1b−/− cells; treated A549 HK1b−/− cells", "result": "totally inhibited"}, {"measurement": "induction of apoptosis", "setting": "A549 WT cells; immunoblot, control treatment, A549 WT and A549 HK1b−/−", "result": "not rapamycin treatment induce apoptosis"}, {"measurement": "AMPK phosphorylation", "setting": "A549 WT cells; treated A549 WT cells", "result": "diminished"}]}
